Data: ChEMBL document CHEMBL1157296, “Cytotoxic and antimicrobial benzophenones from the leaves of Tovomita longifolia” (2006)
Converted amounts (≈) assume the structure as drawn.

Test system: Candida albicans
Assay: Antimicrobial activity against Candida albicans ATCC 10231
Assay type: functional

C[C@@H]1[C@H](O)[C@@H](C)/C=C/C=C/C=C/C=C/C=C/C=C/C=C/[C@H](O[C@@H]2O[C@H](C)[C@@H](O)[C@H](N)[C@@H]2O)C[C@@H]2O[C@](O)(C[C@@H](O)C[C@@H](O)[C@H](O)CC[C@@H](O)C[C@@H](O)CC(=O)O[C@H]1C)C[C@H](O)[C@H]2C(=O)O [AMPHOTERICIN B]
MIC: 0.39 µg/mL (≈ 0.422 µM)
